## Screening data, single-dose tests

Mtb cholesterol medium: 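Phenotypic screen: M. tuberculosis growth, cholesterol and DPPC medium, 4 days; the read-out is not stated. Tested at 50 µM. Direction is inferred from retests: higher values go with more growth inhibition. Size under these conditions: about 69,000 compounds, about 370 of them at 50% or above in at least one test.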
Mtb glucose medium: 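Growth of Mycobacterium tuberculosis over 3 days (7H9 medium with glucose and tyloxapol); the read-out is not stated. Tested at 50 µM. The record gives no direction; compounds that gave an IC50 in retests scored well above the rest, so higher reads as more growth inhibition. About 69,000 compounds were tested under these conditions; 1.1% (about 760) showed 50% or more at least once.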

The filed quantity is “Percent Effect” (%).
How 0% and 100% were set is not recorded. Most values in the screen are low, and negative values occur.
Compounds were drawn at random from those tested, without regard to their results.
Two or more numbers in one place are separate tests of the same structure; such repeats can differ widely.

With CC1CN(C)CCN1CC(=O)NCCOc1ccc2c(c1)OCO2 (centres unmarked) the screen gave Mtb cholesterol medium: 2.054%; Mtb glucose medium: -15.67%. CC1CCN(c2cc(-n3cnc(C(=O)N4CCSCC4)c3)ncn2)CC1 gave Mtb cholesterol medium: 4.035%; Mtb glucose medium: 38.3%. For COc1ccc(F)cc1S(=O)(=O)NCC(c1cccn1C)N(C)C (centres unmarked) the result was Mtb cholesterol medium: -21.14%; Mtb glucose medium: 1.707% & -1.206%. With Cc1c(NC(=O)NCC(C)N2CCOCC2)cccc1OC(F)F (centres unmarked) the screen gave Mtb cholesterol medium: 2.661% & -0.4663%; Mtb glucose medium: -27.1%.

Result for COc1c(C)cnc(CN2CCC(N(C)C(C)C(N)=O)CC2)c1C (centres unmarked) was Mtb cholesterol medium: -28.35%; Mtb glucose medium: -6.933%. Cn1cc(S(=O)(=O)N2CCCC(Cn3cncn3)C2)cn1 (centres unmarked) gave Mtb cholesterol medium: 5.335%; Mtb glucose medium: 13.73%. O=C(c1nc(Cc2c[nH]c3ccccc23)no1)N1CCCC1 read Mtb cholesterol medium: -4.63%; Mtb glucose medium: -14.9%. CN(Cc1csc(-c2cccs2)n1)C(=O)CCn1ccc(=O)[nH]c1=O gave Mtb cholesterol medium: -52.99%; Mtb glucose medium: -44.03%.

CNS(=O)(=O)Cc1cccc(CNC(=O)Nc2cn[nH]c2)c1 gave Mtb cholesterol medium: 4.78%; Mtb glucose medium: 0.03898% & -41.47%. For Cc1cc(C(=O)N2CCCC3(CN(C)C(=O)O3)C2)c2ccc(F)cc2n1 (centres unmarked) the result was Mtb cholesterol medium: -7.418%; Mtb glucose medium: -15.97%. COCC1CC2(CCN(C(=O)c3ccco3)CC2)CN1C(C)C.O=C(O)C(F)(F)F (centres unmarked) read Mtb cholesterol medium: 8.945%; Mtb glucose medium: 15.64%. For CCOCC(O)CN1CCN(C(=O)C2CCC2)CC1 (centres unmarked) the result was Mtb cholesterol medium: -14.26%; Mtb glucose medium: 21.6%.

For CN(C)[C@@H]1CCN(C(=O)c2cccn2C)[C@H]1Cc1cnn(C)c1.O=C(O)C(F)(F)F the result was Mtb cholesterol medium: 1.009% & -7.42%; Mtb glucose medium: -13.06%. For Cc1nnc2n1CCN(C(=O)c1cc(Br)c[nH]1)C2 the result was Mtb cholesterol medium: -2.729%; Mtb glucose medium: -0.5452%. For O=C(O)C(F)(F)F.O=C(O)C(F)(F)F.[H][C@@]12CN(Cc3ccccn3)C[C@]1([H])C(=O)N(c1cnn(C)c1)C2 the result was Mtb cholesterol medium: -7.237%; Mtb glucose medium: -21.15%. CCCC1CCCN(C(=O)Nc2ccc(F)c(C(N)=O)c2)CC1 (centres unmarked) gave Mtb cholesterol medium: 5.104%; Mtb glucose medium: 4.251%.

With Cn1c2c(c(=O)n1C)CN(C(=O)c1cnccn1)CCC2 the screen gave Mtb cholesterol medium: -13.58%; Mtb glucose medium: -11.46%. Cc1sc(NC(=O)CN2CCCC(c3ncc[nH]3)C2)c(C)c1C (centres unmarked) gave Mtb cholesterol medium: 11.24%; Mtb glucose medium: 10.57% & 14.44%. Cc1cc(C(=O)N2CCCCC2C)ccc1NC(=O)N1CCOCC1 (centres unmarked) gave Mtb cholesterol medium: -5.941%; Mtb glucose medium: -8.202%. For Cn1cc(CN2CCCC(Cn3cc(CCCO)nn3)C2)cn1 (centres unmarked) the result was Mtb cholesterol medium: 13.17%; Mtb glucose medium: -11.52%.

With CCC(=O)N1CCCc2c(cnn2C)C1 the screen gave Mtb cholesterol medium: -1.627% & 6.25%; Mtb glucose medium: -5.41%. For Cc1csc(CN2CCn3c(COc4cccnc4)cnc3C2C)n1.O=C(O)C(F)(F)F.O=C(O)C(F)(F)F (centres unmarked) the result was Mtb cholesterol medium: -25.13%; Mtb glucose medium: -23.52%. For O=C(O)C(F)(F)F.O=C(O)C(F)(F)F.[H][C@@]12CCCO[C@]1([H])[C@H](NS(C)(=O)=O)CN(Cc1ccncc1)C2 the result was Mtb cholesterol medium: -11.07%; Mtb glucose medium: -2.614% & 0.2142%. [H][C@]12CC[C@]([H])(CN(C(=O)Cc3c(C)nc(C)[nH]c3=O)C1)N(CC=C(C)C)C2 read Mtb cholesterol medium: -3.293%; Mtb glucose medium: -8.33% & -50.71%.

COc1ccc(CN2CCCC(N3CCCC3)C2)cc1Cn1cncn1 (centres unmarked) gave Mtb cholesterol medium: -10.78%; Mtb glucose medium: -15.01%.

For reference, 2 entries once more:

Compound	Mtb cholesterol medium	Mtb glucose medium
Cc1sc(NC(=O)CN2CCCC(c3ncc[nH]3)C2)c(C)c1C (centres unmarked)	11.24	10.57 & 14.44
O=C(O)C(F)(F)F.O=C(O)C(F)(F)F.[H][C@@]12CCCO[C@]1([H])[C@H](NS(C)(=O)=O)CN(Cc1ccncc1)C2	-11.07	-2.614 & 0.2142

Source: ChEMBL document CHEMBL3988442, “University of Dundee, Small-Polar-MMV Screening Library” (2021).